Reference: PubChem BioAssay AID1508588 (Peter MacCallum Cancer Centre, 2020)
In all, the deposit lists about 18,000 reagents; below is an unselected part. Over the whole deposit, 790 (4.4%) are marked active. 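Calls rest on a combination of fold-change classes in drug and vehicle arms, not all shown here.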 No sequences are given here.

Test: 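Knock-downs boosting vemurafenib effects on melanoma cell growth or lactate release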 (primary screen)
Cells: human WM266.4 melanoma cells (BRAF V600 mutant)
Knock-down reagent: siRNA pool against human genes, 40 nM
Timing: 96 h from transfection to read-out
Treatment: vemurafenib 300 nM (about IC25), added 48 h after transfection, for 48 h; comparison arm got DMSO vehicle only
Measurement: 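Cell gain (DAPI nuclei at end minus before drug, mean of two replicates) and medium lactate by absorbance per cell, both as ratio to non-targeting siRNA, also grouped into fold-change classes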
Direction: cell gain with vemurafenib: higher = more cell gain than with non-targeting siRNA; lactate per cell with vemurafenib: higher = more lactate made per cell
Rule for the call: 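a knock-down counts as enhancing when its fold-change classes with vehicle and with vemurafenib, taken together, show a stronger drug effect on cell gain or lactate per cell; exact class pairs not stated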
Calls: active = enhances vemurafenib effect; inactive = no enhancement seen

Against TBC1D13 (TBC1 domain family member 13), the entry reads cell gain with vemurafenib 0.21; lactate per cell with vemurafenib 1.48; inactive.
For TAL2 (TAL bHLH transcription factor 2), the entry reads cell gain with vemurafenib 0.41; lactate per cell with vemurafenib 1.64; inactive.
ACR (acrosin) gave cell gain with vemurafenib 0.69; lactate per cell with vemurafenib 0.82; inactive.
Silencing of MYO16 (myosin XVI) came out at: cell gain with vemurafenib 0.52; lactate per cell with vemurafenib 1.92; inactive.
Against HPD (4-hydroxyphenylpyruvate dioxygenase), the values are cell gain with vemurafenib 0.56; lactate per cell with vemurafenib 2.56; inactive.
Silencing of MAPK1 (mitogen-activated protein kinase 1) resulted in: cell gain with vemurafenib -0.22; lactate per cell with vemurafenib -0.32; inactive.
After knock-down of TMEM255A (transmembrane protein 255A) the results were cell gain with vemurafenib 0.59; lactate per cell with vemurafenib 1.48; inactive.
Silencing of OR2G6 (olfactory receptor family 2 subfamily G member 6) gave: cell gain with vemurafenib 0.53; lactate per cell with vemurafenib 1.82; inactive.
For POTEE (POTE ankyrin domain family member E) the deposit lists cell gain with vemurafenib 0.37; lactate per cell with vemurafenib 1.47; inactive.
Against FASTKD1 (FASTK mitochondrial RNA regulator 1), the values are cell gain with vemurafenib 0.5; lactate per cell with vemurafenib 0.5; inactive.
Against LIPM (lipase family member M) the deposit lists cell gain with vemurafenib 0.93; lactate per cell with vemurafenib 0.51; inactive.
MYH9 (myosin heavy chain 9) showed cell gain with vemurafenib 0.66; lactate per cell with vemurafenib 1.8; inactive.
After knock-down of CYC1 (cytochrome c1), the record shows cell gain with vemurafenib 0.68; lactate per cell with vemurafenib 1.68; inactive.
With knock-down of KIR3DP1 the results were cell gain with vemurafenib 0.77; lactate per cell with vemurafenib 0.78; inactive.
With knock-down of ERMAP, the screen gave cell gain with vemurafenib 0.31; lactate per cell with vemurafenib 0.97; inactive.
Silencing of DEXI (Dexi homolog) resulted in: cell gain with vemurafenib 0.94; lactate per cell with vemurafenib 0.46; inactive.
With knock-down of LCAT (lecithin-cholesterol acyltransferase), the screen gave cell gain with vemurafenib 0.51; lactate per cell with vemurafenib 0.66; inactive.
ACAD10 (acyl-CoA dehydrogenase family member 10) gave cell gain with vemurafenib 0.51; lactate per cell with vemurafenib 0.26; inactive.
Silencing of MSN (moesin) resulted in: cell gain with vemurafenib 1.16; lactate per cell with vemurafenib 0.64; inactive.
For ECI2 (enoyl-CoA delta isomerase 2) the deposit lists cell gain with vemurafenib 0.65; lactate per cell with vemurafenib 0.46; inactive.
Silencing of PARP12 (poly(ADP-ribose) polymerase family member 12) resulted in: cell gain with vemurafenib 0.47; lactate per cell with vemurafenib 0.5; inactive.
Silencing of DHX15 (DEAH-box helicase 15) came out at: cell gain with vemurafenib 0.61; lactate per cell with vemurafenib 0.66; inactive.
SCGB1D4 (secretoglobin family 1D member 4) scored cell gain with vemurafenib 0.81; lactate per cell with vemurafenib 0.86; inactive.
Depletion of NKAIN3 (sodium/potassium transporting ATPase interacting 3) came out at: cell gain with vemurafenib 0.86; lactate per cell with vemurafenib 1.07; inactive.
Against AK1 (adenylate kinase 1), the values are cell gain with vemurafenib 0.4; lactate per cell with vemurafenib 0.97; inactive.
KCNQ2 (potassium voltage-gated channel subfamily Q member 2) showed cell gain with vemurafenib 0.45; lactate per cell with vemurafenib 1.23; inactive.
Against CYB5R2 (cytochrome b5 reductase 2), the entry reads cell gain with vemurafenib 1.09; lactate per cell with vemurafenib 0.61; inactive.
For TIGD2 (tigger transposable element derived 2), the values are cell gain with vemurafenib 1.11; lactate per cell with vemurafenib 0.38; inactive.
Silencing of ITPRIP (inositol 1,4,5-trisphosphate receptor interacting protein) resulted in: cell gain with vemurafenib 1.27; lactate per cell with vemurafenib 0.62; inactive.
Depletion of MRPL45 (mitochondrial ribosomal protein L45) resulted in: cell gain with vemurafenib 0.59; lactate per cell with vemurafenib 0.97; inactive.
NSG2 (neuronal vesicle trafficking associated 2) gave cell gain with vemurafenib 0.22; lactate per cell with vemurafenib 0.68; active.
Silencing of TRIB1 (tribbles pseudokinase 1) came out at: cell gain with vemurafenib 0.92; lactate per cell with vemurafenib 1.08; inactive.
MARCKS (myristoylated alanine rich protein kinase C substrate) showed cell gain with vemurafenib 0.37; lactate per cell with vemurafenib 1.62; inactive.
After knock-down of PDCL (phosducin like), the screen gave cell gain with vemurafenib 0.64; lactate per cell with vemurafenib 1; inactive.
Against KCNE4 the deposit lists cell gain with vemurafenib 0.62; lactate per cell with vemurafenib 0.14; inactive.
BAZ2B (bromodomain adjacent to zinc finger domain 2B) showed cell gain with vemurafenib 0.62; lactate per cell with vemurafenib 1.52; inactive.
With knock-down of CISH (cytokine inducible SH2 containing protein) the results were cell gain with vemurafenib 1.07; lactate per cell with vemurafenib 0.59; inactive.
Against ERMARD (ER membrane associated RNA degradation), the values are cell gain with vemurafenib 0.89; lactate per cell with vemurafenib 1.21; inactive.
LSM14B (LSM family member 14B) scored cell gain with vemurafenib -0.07; lactate per cell with vemurafenib 1.19; inactive.
PGAP3 (post-GPI attachment to proteins phospholipase 3) showed cell gain with vemurafenib 0.63; lactate per cell with vemurafenib 0.66; inactive.
CFAP161 (cilia and flagella associated protein 161) showed cell gain with vemurafenib 1.03; lactate per cell with vemurafenib 0.49; inactive.
Depletion of PDZK1 (PDZ domain containing 1) gave: cell gain with vemurafenib 1.16; lactate per cell with vemurafenib 0.36; inactive.
CCNL1 (cyclin L1) gave cell gain with vemurafenib 0.54; lactate per cell with vemurafenib 0.62; inactive.
SLC7A9 scored cell gain with vemurafenib 0.59; lactate per cell with vemurafenib 1.31; inactive.
Knock-down of DNAH2 (dynein axonemal heavy chain 2) resulted in: cell gain with vemurafenib 0.58; lactate per cell with vemurafenib 0.97; inactive.
IFIT5 (interferon induced protein with tetratricopeptide repeats 5) gave cell gain with vemurafenib 0.58; lactate per cell with vemurafenib 0.74; inactive.
For PPP3R1 (protein phosphatase 3 regulatory subunit B, alpha) the deposit lists cell gain with vemurafenib 0.51; lactate per cell with vemurafenib 0.42; inactive.
Silencing of CFH (complement factor H) came out at: cell gain with vemurafenib 1.29; lactate per cell with vemurafenib 0.92; inactive.
Depletion of KMT2D (lysine methyltransferase 2D) gave: cell gain with vemurafenib 1.14; lactate per cell with vemurafenib 0.77; inactive.
Against LBR (lamin B receptor) the deposit lists cell gain with vemurafenib 0.56; lactate per cell with vemurafenib 1.54; inactive.
HRH1 (histamine receptor H1) gave cell gain with vemurafenib 0.62; lactate per cell with vemurafenib 0.54; inactive.
Knock-down of OGFOD1 resulted in: cell gain with vemurafenib 0.73; lactate per cell with vemurafenib 0.94; inactive.

3 entries from above, set out differently:
gene knocked down	cell gain with vemurafenib	lactate per cell with vemurafenib	activity call
ERMARD (ER membrane associated RNA degradation)	0.89	1.21	inactive
LSM14B (LSM family member 14B)	-0.07	1.19	inactive
PGAP3 (post-GPI attachment to proteins phospholipase 3)	0.63	0.66	inactive
